# Data from patent publication US7446117B2, “Cox-2 inhibiting pyridine derivatives” (Glaxo Group Limited, priority 2002, dated 2008).
# The chains behind the UniProt entries cited, without tags or fusion partners. Residues count along the entry.
# UniProt P23219, 24-599: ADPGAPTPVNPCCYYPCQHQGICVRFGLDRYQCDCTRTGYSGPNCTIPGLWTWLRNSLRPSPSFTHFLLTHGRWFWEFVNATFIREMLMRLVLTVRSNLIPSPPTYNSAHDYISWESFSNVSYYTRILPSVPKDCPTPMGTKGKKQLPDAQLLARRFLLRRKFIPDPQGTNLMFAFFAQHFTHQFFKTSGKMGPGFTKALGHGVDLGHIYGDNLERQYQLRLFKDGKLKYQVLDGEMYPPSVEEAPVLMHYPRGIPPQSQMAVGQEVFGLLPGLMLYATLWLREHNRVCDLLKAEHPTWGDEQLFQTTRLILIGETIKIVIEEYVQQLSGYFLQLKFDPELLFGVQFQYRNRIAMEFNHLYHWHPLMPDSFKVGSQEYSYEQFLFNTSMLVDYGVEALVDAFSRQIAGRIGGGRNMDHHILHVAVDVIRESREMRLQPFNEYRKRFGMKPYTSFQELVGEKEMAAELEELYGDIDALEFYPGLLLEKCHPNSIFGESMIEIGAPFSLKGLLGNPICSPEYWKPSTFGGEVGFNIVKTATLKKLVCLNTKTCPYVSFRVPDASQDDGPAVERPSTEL
# Some of these results come from one statement about several compounds together.
# Target: COX-1 (Homo sapiens, UniProt P23219)
# Test: COX-1 inhibition, IC50 compared for selectivity for COX-2 over COX-1
# Format: biochemical
# Conditions: based on comparison of the respective IC50 values
compound,measurement,value
Cc1cc(NCc2ccc(C)nc2)nc(-c2ccc(S(N)(=O)=O)cc2)c1 [Example 102],selectivity for COX-2 over COX-1,≥ 100 fold
